These are yes or no findings as the source states them, for the method shown. In cells and extracts the contact can be indirect. Some results given as binding are weak or reduced against the parent protein; the word gives no strength.
Target: Act1 (human (endogenous in primary FLS cells)) (UniProt O43734)
Test: co-IP; whole cell lysates of human primary FLS cells left untreated or treated with FGF2 (50 ng/ml) for the indicated times; immunoprecipitated with anti-Act1 (0.5 ug) and protein A beads overnight at 4 °C, washed four times with lysis buffer, immunoblotted

Amino acid sequences for entries named in this document (tags omitted).
UniProt O43734: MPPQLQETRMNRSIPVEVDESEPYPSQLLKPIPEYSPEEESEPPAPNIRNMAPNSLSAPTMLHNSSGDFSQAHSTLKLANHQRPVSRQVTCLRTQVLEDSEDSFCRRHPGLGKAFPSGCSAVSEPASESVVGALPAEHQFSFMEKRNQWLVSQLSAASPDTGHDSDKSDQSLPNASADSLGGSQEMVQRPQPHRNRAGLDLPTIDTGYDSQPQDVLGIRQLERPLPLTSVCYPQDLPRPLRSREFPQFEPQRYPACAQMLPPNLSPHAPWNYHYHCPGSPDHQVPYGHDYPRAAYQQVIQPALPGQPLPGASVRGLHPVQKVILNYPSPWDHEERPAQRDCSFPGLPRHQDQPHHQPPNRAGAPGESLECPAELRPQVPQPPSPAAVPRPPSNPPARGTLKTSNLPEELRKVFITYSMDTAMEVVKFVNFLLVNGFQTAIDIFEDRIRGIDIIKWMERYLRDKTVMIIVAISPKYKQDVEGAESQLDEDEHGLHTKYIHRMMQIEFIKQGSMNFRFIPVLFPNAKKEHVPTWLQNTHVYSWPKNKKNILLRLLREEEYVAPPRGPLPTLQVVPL
UniProt P62993: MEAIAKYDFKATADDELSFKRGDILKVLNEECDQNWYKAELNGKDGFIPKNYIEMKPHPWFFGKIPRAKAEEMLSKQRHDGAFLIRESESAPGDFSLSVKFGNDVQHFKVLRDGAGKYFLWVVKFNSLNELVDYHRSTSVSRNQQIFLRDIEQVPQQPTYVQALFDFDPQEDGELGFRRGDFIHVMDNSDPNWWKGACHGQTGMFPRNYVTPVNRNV

binding: binds
Substance: Grb2 (from UniProt P62993 1-217)
